These are yes or no findings as the source states them, for the method shown. For part of these data: Binding seen in cells or lysates may run through a third protein. Some binding calls cover weakened binding; strength is not graded here.
Assays:
[1] = biological target: Gal4 DB domain fused to the full length survivin (human) (UniProt O15392); assay: yeast two-hybrid screen (Proquest) with pDBLeu-Survivin as bait against HeLa and fetal brain cDNA libraries; 25 mM 3-aminotriazole selection
Survivin (human) [2] = biological target: Survivin (human) (UniProt O15392); assay: yeast two-hybrid in S. cerevisiae EGY48/pSH18-32 (LexA and Gal4 activation domain fusions); growth without leucine and blue colour on X-Gal
Survivin (human) [3] = biological target: Survivin (human) (UniProt O15392); assay: co-immunoprecipitation with V5 antibody, from HeLa cells and of in vitro translated proteins

Amino acid sequences for entries named in this document (tags omitted).
UniProt O15392: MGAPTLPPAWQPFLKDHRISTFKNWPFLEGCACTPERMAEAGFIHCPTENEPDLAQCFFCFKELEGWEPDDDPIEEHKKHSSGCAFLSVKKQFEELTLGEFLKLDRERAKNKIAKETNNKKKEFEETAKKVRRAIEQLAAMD

Measured: binding

B1: Survivin Interacting Protein 1 (protein)
chain: MEASVILPILKKKLAFLSGGKDRRSGLILTIPLCLEQTNMDELSVTLDYLLSIPSEKCKARGFTVIVDGRKSQWNVVKTVVVMLQNVVPAEVSLVCVVKPDEFWDKKVTHFCFWKEKDRLGFEVILVSANKLTRYIEPCQLTEDFGGSLTYDHMDWLNKRLVFEKFTKESTSLLDELALINNGSDKGNQQEKERSVDLNFLPSVDPETVLQTGHELLSELQQRRFNGSDGGVSWSPMDDELLAQPQVMKLLDSLREQYTRYQEVCRQRSKRTQLEEIQQKVMQVVNWLEGPGSEQLRAQWGIGDSIRASQALQQKHEEIESQHSEWFAVYVELNQQIAALLNAGDEEDLVELKSLQQQLSDVCYRQASQLEFRQNLLQAALEFHGVAQDLSQQLDGLLGMLCVDVAPADGASIQQTLKLLEEKLKSVDVGLQGLREKGQGLLDQISNQASWAYGKDVTIENKENVDHIQGVMEDMQLRKQRCEDMVDVRRLKMLQMVQLFKCEEDAAQAVEWLSELLDALLKTHIRLGDDAQETKVLLEKHRKFVDVAQSTYDYGRQLLQATVVLCQSLRCTSRSSGDTLPRLNRVWKQFTIASEERVHRLEMAIAFHSNAEKILQDCPEEPEAINDEEQFDEIEAVGKSLLDRLTVPVVYPDGTEQYFGSPSDMASTAENIRDRMKLVNLKRQQLRHPEMVTTES
binds: all assays above

Reference: US20040254346A1
